US20040079671A1, “Medicinal product packaging” (priority 2002, published 2004)
At least one structure is not confirmed: it was looked up by name or label, or the drawing left a doubt.

Test: Accelerated stability at 56° C. of chlorobutanol and paraben test solution in untreated and fluorinated polypropylene bottles (HPLC concentration)
Assay type: physicochemical
Protocol: Polypropylene bottles (dropper-type) were obtained from Owens-Brockway, Ill. (capacity 5 ml). Some of the bottles were sent to a company called Fluoro-Seal (Columbus, Ohio) where they were treated for fluorine-coating under a proprietary method. After the bottles were ‘fluorosealed’ (done at ‘level 5’) they were washed in dilute soap solution rinsed several times in de-ionized water and dried before use. The bottles were then filled with 3 ml of a chlorobutanol and paraben test solution (Table 4). Control samples of untreated polypropylene bottles filled with the same solution were also prepared. All samples were prepared in duplicate and put up on accelerated stability at 56° C. Before putting on stability, ‘0’ time-point samples from all bottles were collected and the bottles were weighed. Concentration of cholorobutanol and methyl- and propyl parabens was determined by an HPLC method. Samples were taken at 1 wk, 2 wk and 4 wks by expelling ˜50-100 mcg droplets into tared vials. Bottles were weighed before and after sampling, before returning to condition. The following terms are used in Table 4, below. PP means polypropylene (untreated). PP-FL or PP-FL5 means fluorinated polypropylene at service provider's specified level of ‘5’. LDPE is low density polyethylene (untreated). LDPE-FL5 means low density polyethylene fluorinated at service provider's specified level of ‘5’. Duplicate samples were measured.

Q: What does the source list for `CC(C)(O)C(Cl)(Cl)Cl` [CHLOROBUTANOL, chlorobutanol]?
A: Conc. of chlorobutanol (bottle FL-5 PP-1 (fluorinated polypropylene, level 5), time of storage 0): 5230 µg/mL; Conc. of chlorobutanol (bottle FL-5 PP-1 (fluorinated polypropylene, level 5), time of storage 1 (wk)): 4010 µg/mL; Conc. of chlorobutanol (bottle FL-5 PP-1 (fluorinated polypropylene, level 5), time of storage 2 (wk)): 3720 µg/mL; Conc. of chlorobutanol (bottle FL-5 PP-1 (fluorinated polypropylene, level 5), time of storage 4 (wks)): 3420 µg/mL; Conc. of chlorobutanol (bottle FL-5 PP-2 (fluorinated polypropylene, level 5), time of storage 0): 5100 µg/mL; Conc. of chlorobutanol (bottle FL-5 PP-2 (fluorinated polypropylene, level 5), time of storage 1 (wk)): 3990 µg/mL; Conc. of chlorobutanol (bottle FL-5 PP-2 (fluorinated polypropylene, level 5), time of storage 2 (wk)): 3740 µg/mL; Conc. of chlorobutanol (bottle FL-5 PP-2 (fluorinated polypropylene, level 5), time of storage 4 (wks)): 3590 µg/mL; Conc. of chlorobutanol (bottle PP-1 (untreated polypropylene), time of storage 0): 5130 µg/mL; Conc. of chlorobutanol (bottle PP-1 (untreated polypropylene), time of storage 1 (wk)): 2370 µg/mL; Conc. of chlorobutanol (bottle PP-1 (untreated polypropylene), time of storage 2 (wk)): 1850 µg/mL; Conc. of chlorobutanol (bottle PP-1 (untreated polypropylene), time of storage 4 (wks)): 1360 µg/mL; Conc. of chlorobutanol (bottle PP-2 (untreated polypropylene), time of storage 0): 5100 µg/mL; Conc. of chlorobutanol (bottle PP-2 (untreated polypropylene), time of storage 1 (wk)): 1970 µg/mL; Conc. of chlorobutanol (bottle PP-2 (untreated polypropylene), time of storage 2 (wk)): 1260 µg/mL; Conc. of chlorobutanol (bottle PP-2 (untreated polypropylene), time of storage 4 (wks)): 910 µg/mL
